{
  "source": "the supplement of paper PMC8728848",
  "binders": {"B1": {"name": "Clec18A (Homo sapiens) (protein)", "chain": "PFHTCDLRIDGDCFMVSSEADTYYRARMKCQRKGGVLAQIKRQKVQDILAFYLGRLETTNEVIDSDFETRNFWIGLTYKTAKDSFRWATGEHQAFTSFAFGQPDNHGFGNCVELQASAAFNWNDQRCKTRNRYICQ"}},
  "experiment_in_all_cases": "glycan array binding signal (z-score within array); higher = stronger binding",
  "conditions_in_all_cases": "glycan notation: IUPAC condensed, linker removed",
  "key": {"[1]": {"target": "GlcNAc(b1-3)Gal(b1-4)GlcNAc(b1-3)Gal(b1-4)GlcNAc(b1-3)GalNAc", "method_in_brief": "(§1)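 From the Consortium for Functional Glycomics database, 3228 arrays were curated, keeping only those whose protein sequence was available. Binding is given as a within-array Z-score averaged across arrays sharing a protein sequence and across linkers. Negative Z-scores can be read as non-binding.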"}, "[2]": {"target": "GlcNAc(b1-3)Gal(b1-4)GlcNAc(b1-3)GalNAc", "method_in_brief": "as §1"}, "[3]": {"target": "GlcNAc(b1-3)Gal(b1-4)GlcNAc(b1-3)[GlcNAc(b1-3)Gal(b1-4)GlcNAc(b1-3)]GalNAc", "method_in_brief": "as §1"}, "[4]": {"target": "GlcNAc(b1-3)Gal(b1-4)GlcNAc(b1-6)[Gal(b1-3)]GalNAc", "method_in_brief": "as §1"}, "[5]": {"target": "GlcNAc(b1-3)Gal(b1-4)GlcNAc(b1-6)[GlcNAc(b1-3)Gal(b1-3)]GalNAc", "method_in_brief": "as §1"}, "[6]": {"target": "GlcNAc(b1-3)Gal(b1-4)GlcNAc(b1-6)[GlcNAc(b1-3)]Gal(b1-4)GlcNAc", "method_in_brief": "as §1"}, "GlcNAc(b1-3)GalNAc": {"target": "GlcNAc(b1-3)GalNAc", "method_in_brief": "as §1"}, "GlcNAc(b1-3)Man": {"target": "GlcNAc(b1-3)Man", "method_in_brief": "as §1"}, "[7]": {"target": "GlcNAc(b1-3)[GlcNAc(b1-4)][GlcNAc(b1-6)]GlcNAc", "method_in_brief": "as §1"}, "[8]": {"target": "GlcNAc(b1-3)[GlcNAc(b1-6)]Gal(b1-4)GlcNAc", "method_in_brief": "as §1"}, "[9]": {"target": "GlcNAc(b1-3)[GlcNAc(b1-6)]GalNAc", "method_in_brief": "as §1"}, "[10]": {"target": "GlcNAc(b1-4)Gal(b1-4)GlcNAc", "method_in_brief": "as §1"}, "GlcNAc(b1-4)GlcNAc": {"target": "GlcNAc(b1-4)GlcNAc", "method_in_brief": "as §1"}, "[11]": {"target": "GlcNAc(b1-4)GlcNAc(b1-4)GlcNAc", "method_in_brief": "as §1"}, "[12]": {"target": "GlcNAc(b1-4)GlcNAc(b1-4)GlcNAc(b1-4)GlcNAc(b1-4)GlcNAc", "method_in_brief": "as §1"}, "[13]": {"target": "GlcNAc(b1-4)GlcNAc(b1-4)GlcNAc(b1-4)GlcNAc(b1-4)GlcNAc(b1-4)GlcNAc", "method_in_brief": "as §1"}, "[14]": {"target": "GlcNAc(b1-4)[GlcNAc(b1-6)]GalNAc", "method_in_brief": "as §1"}, "[15]": {"target": "GlcNAc(b1-6)Gal(b1-4)GlcNAc", "method_in_brief": "as §1"}, "GlcNAc(b1-6)GalNAc": {"target": "GlcNAc(b1-6)GalNAc", "method_in_brief": "as §1"}, "[16]": {"target": "GlcNAc6S(b1-3)Gal(b1-4)GlcNAc", "method_in_brief": "as §1"}, "Kdn(a2-3)Gal(b1-3)GalNAc": {"target": "Kdn(a2-3)Gal(b1-3)GalNAc", "method_in_brief": "as §1"}, "Kdn(a2-3)Gal(b1-3)GlcNAc": {"target": "Kdn(a2-3)Gal(b1-3)GlcNAc", "method_in_brief": "as §1"}, "Kdn(a2-3)Gal(b1-4)Glc": {"target": "Kdn(a2-3)Gal(b1-4)Glc", "method_in_brief": "as §1"}, "Kdn(a2-3)Gal(b1-4)GlcNAc": {"target": "Kdn(a2-3)Gal(b1-4)GlcNAc", "method_in_brief": "as §1"}, "[17]": {"target": "Kdn(a2-3)Gal(b1-4)[Fuc(a1-3)]GlcNAc", "method_in_brief": "as §1"}, "Kdn(a2-6)Gal(b1-4)GlcNAc": {"target": "Kdn(a2-6)Gal(b1-4)GlcNAc", "method_in_brief": "as §1"}, "[18]": {"target": "Man(a1-2)Man(a1-2)Man(a1-3)Man", "method_in_brief": "as §1"}, "[19]": {"target": "Man(a1-2)Man(a1-2)Man(a1-6)[Man(a1-3)]Man", "method_in_brief": "as §1"}, "Man(a1-2)Man(a1-3)Man": {"target": "Man(a1-2)Man(a1-3)Man", "method_in_brief": "as §1"}, "[20]": {"target": "Man(a1-2)Man(a1-3)[Man(a1-2)Man(a1-6)]Man", "method_in_brief": "as §1"}, "[21]": {"target": "Man(a1-2)Man(a1-3)[Man(a1-2)Man(a1-6)]Man(a1-6)[Man(a1-2)Man(a1-2)Man(a1-3)]Man", "method_in_brief": "as §1"}, "[22]": {"target": "Man(a1-2)Man(a1-3)[Man(a1-2)Man(a1-6)]Man(a1-6)[Man(a1-2)Man(a1-2)Man(a1-3)]Man(b1-4)GlcNAc(b1-4)GlcNAc", "method_in_brief": "as §1"}, "[23]": {"target": "Man(a1-2)Man(a1-3)[Man(a1-6)]Man(a1-6)[Man(a1-2)Man(a1-3)]Man(b1-4)GlcNAc(b1-4)GlcNAc", "method_in_brief": "as §1"}, "[24]": {"target": "Man(a1-2)Man(a1-6)[Man(a1-3)]Man(a1-6)[Man(a1-2)Man(a1-2)Man(a1-3)]Man", "method_in_brief": "as §1"}, "[25]": {"target": "Man(a1-2)Man(a1-6)[Man(a1-3)]Man(a1-6)[Man(a1-2)Man(a1-2)Man(a1-3)]Man(b1-4)GlcNAc(b1-4)GlcNAc", "method_in_brief": "as §1"}, "Man(a1-3)[Man(a1-6)]Man": {"target": "Man(a1-3)[Man(a1-6)]Man", "method_in_brief": "as §1"}, "[26]": {"target": "Man(a1-3)[Man(a1-6)]Man(a1-6)[Man(a1-2)Man(a1-3)]Man(b1-4)GlcNAc(b1-4)GlcNAc", "method_in_brief": "as §1"}, "[27]": {"target": "Man(a1-3)[Man(a1-6)]Man(a1-6)[Man(a1-3)]Man", "method_in_brief": "as §1"}, "[28]": {"target": "Man(a1-3)[Man(a1-6)]Man(a1-6)[Man(a1-3)]Man(b1-4)GlcNAc(b1-4)GlcNAc", "method_in_brief": "as §1"}, "[29]": {"target": "Man(a1-3)[Man(a1-6)]Man(b1-4)GlcNAc(b1-4)GlcNAc", "method_in_brief": "as §1"}, "[30]": {"target": "Man(a1-3)[Man(a1-6)]Man(b1-4)GlcNAc(b1-4)[Fuc(a1-6)]GlcNAc", "method_in_brief": "as §1"}, "Man(a1-6)Man": {"target": "Man(a1-6)Man", "method_in_brief": "as §1"}, "Man(b1-4)GlcNAc": {"target": "Man(b1-4)GlcNAc", "method_in_brief": "as §1"}, "MurNAc(b1-4)GlcNAc": {"target": "MurNAc(b1-4)GlcNAc", "method_in_brief": "as §1"}, "Neu5Ac(a2-3)Gal": {"target": "Neu5Ac(a2-3)Gal", "method_in_brief": "as §1"}},
  "note": "The list shows a part of the results.",
  "data": [
    {"binder": "B1", "values": [
      {"measurement": "glycan array binding signal (z-score)", "setting": "[1]", "value": -0.809},
      {"measurement": "glycan array binding signal (z-score)", "setting": "[2]", "value": -0.749},
      {"measurement": "glycan array binding signal (z-score)", "setting": "[3]", "value": -0.543},
      {"measurement": "glycan array binding signal (z-score)", "setting": "[4]", "value": 0.123},
      {"measurement": "glycan array binding signal (z-score)", "setting": "[5]", "value": -0.582},
      {"measurement": "glycan array binding signal (z-score)", "setting": "[6]", "value": -0.909},
      {"measurement": "glycan array binding signal (z-score)", "setting": "GlcNAc(b1-3)GalNAc", "value": -0.572},
      {"measurement": "glycan array binding signal (z-score)", "setting": "GlcNAc(b1-3)Man", "value": -0.866},
      {"measurement": "glycan array binding signal (z-score)", "setting": "[7]", "value": 0.98},
      {"measurement": "glycan array binding signal (z-score)", "setting": "[8]", "value": -0.673},
      {"measurement": "glycan array binding signal (z-score)", "setting": "[9]", "value": -0.327},
      {"measurement": "glycan array binding signal (z-score)", "setting": "[10]", "value": -0.426},
      {"measurement": "glycan array binding signal (z-score)", "setting": "GlcNAc(b1-4)GlcNAc", "value": -0.752},
      {"measurement": "glycan array binding signal (z-score)", "setting": "[11]", "value": 0.109},
      {"measurement": "glycan array binding signal (z-score)", "setting": "[12]", "value": -0.848},
      {"measurement": "glycan array binding signal (z-score)", "setting": "[13]", "value": -0.758},
      {"measurement": "glycan array binding signal (z-score)", "setting": "[14]", "value": -0.376},
      {"measurement": "glycan array binding signal (z-score)", "setting": "[15]", "value": -0.666},
      {"measurement": "glycan array binding signal (z-score)", "setting": "GlcNAc(b1-6)GalNAc", "value": 0.314},
      {"measurement": "glycan array binding signal (z-score)", "setting": "[16]", "value": -0.779},
      {"measurement": "glycan array binding signal (z-score)", "setting": "Kdn(a2-3)Gal(b1-3)GalNAc", "value": -0.348},
      {"measurement": "glycan array binding signal (z-score)", "setting": "Kdn(a2-3)Gal(b1-3)GlcNAc", "value": 0.75},
      {"measurement": "glycan array binding signal (z-score)", "setting": "Kdn(a2-3)Gal(b1-4)Glc", "value": -0.167},
      {"measurement": "glycan array binding signal (z-score)", "setting": "Kdn(a2-3)Gal(b1-4)GlcNAc", "value": -0.545},
      {"measurement": "glycan array binding signal (z-score)", "setting": "[17]", "value": -0.231},
      {"measurement": "glycan array binding signal (z-score)", "setting": "Kdn(a2-6)Gal(b1-4)GlcNAc", "value": -0.602},
      {"measurement": "glycan array binding signal (z-score)", "setting": "[18]", "value": -0.869},
      {"measurement": "glycan array binding signal (z-score)", "setting": "[19]", "value": -0.61},
      {"measurement": "glycan array binding signal (z-score)", "setting": "Man(a1-2)Man(a1-3)Man", "value": -0.803},
      {"measurement": "glycan array binding signal (z-score)", "setting": "[20]", "value": -0.999},
      {"measurement": "glycan array binding signal (z-score)", "setting": "[21]", "value": -0.771},
      {"measurement": "glycan array binding signal (z-score)", "setting": "[22]", "value": -0.084},
      {"measurement": "glycan array binding signal (z-score)", "setting": "[23]", "value": -0.77},
      {"measurement": "glycan array binding signal (z-score)", "setting": "[24]", "value": -0.89},
      {"measurement": "glycan array binding signal (z-score)", "setting": "[25]", "value": -0.291},
      {"measurement": "glycan array binding signal (z-score)", "setting": "Man(a1-3)[Man(a1-6)]Man", "value": -0.992},
      {"measurement": "glycan array binding signal (z-score)", "setting": "[26]", "value": -0.754},
      {"measurement": "glycan array binding signal (z-score)", "setting": "[27]", "value": 1.23},
      {"measurement": "glycan array binding signal (z-score)", "setting": "[28]", "value": -0.219},
      {"measurement": "glycan array binding signal (z-score)", "setting": "[29]", "value": -0.389},
      {"measurement": "glycan array binding signal (z-score)", "setting": "[30]", "value": -0.194},
      {"measurement": "glycan array binding signal (z-score)", "setting": "Man(a1-6)Man", "value": -0.685},
      {"measurement": "glycan array binding signal (z-score)", "setting": "Man(b1-4)GlcNAc", "value": -0.767},
      {"measurement": "glycan array binding signal (z-score)", "setting": "MurNAc(b1-4)GlcNAc", "value": -0.466},
      {"measurement": "glycan array binding signal (z-score)", "setting": "Neu5Ac(a2-3)Gal", "value": -0.755}
    ]}
  ]
}
